Assay results from the supplement of paper PMC4604168 (melanoma cell lines).
The other results are listed elsewhere or left out. Single values are uncertain, as repeats are few or missing.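 Cells were imaged in 1,536-well plates, and nuclei stained with an antibody against cleaved PARP were counted against all DNA-stained nuclei to give the apoptosis fraction. Screening doses were chosen to leave most cells alive, and resting and induced cleaved-PARP levels differ strongly between cell lines.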

Test system: C32
Assay: cleaved PARP positive nuclei fraction relative to DMSO control; melanoma cells; higher = more apoptosis
Conditions: library dose: low library concentration; 72 h

First: O=c1[nH]nc(Sc2ncc([N+](=O)[O-])s2)n1-c1ccc2c(c1)OCCO2 + COc1cc2c(Oc3ccc4[nH]c(C)cc4c3F)ncnc2cc1OCCCN1CCCC1 [cediranib] (first compound 0.2 µM, partner dose 0.4 µM)
Second: Cc1cc(Nc2cc(N3CCN(C)CC3)nc(Sc3ccc(NC(=O)C4CC4)cc3)n2)n[nH]1 [Tozasertib] + NC(=O)Nc1cc(-c2cccc(F)c2)sc1C(=O)N[C@H]1CCCNC1 [AZD7762] (first compound 0.006 µM, partner dose 0.02 µM)
The “cleaved PARP positive nuclei fraction” value of the first is lower: 170% for the first, 230% for the second.

Going from `Cc1cn(-c2cc(NC(=O)c3ccc(C)c(Nc4nccc(-c5cccnc5)n4)c3)cc(C(F)(F)F)c2)cn1` [nilotinib] + O=C(Nc1cccc(Cl)c1)Nc1ncc(CCNc2ncnc3ccsc23)s1 [SNS314] (first compound 0.2 µM, partner dose 0.0008 µM) to `Cc1ccc(Nc2nccc(N(C)c3ccc4c(C)n(C)nc4c3)n2)cc1S(N)(=O)=O` [Pazopanib] + COc1cc(Nc2ncc(F)c(Nc3ccc4c(n3)NC(=O)C(C)(C)O4)n2)cc(OC)c1OC [Tamatinib] (first compound 0.4 µM, partner dose 0.4 µM), the “cleaved PARP positive nuclei fraction” value rises from 54.4% to 142%.

Compared with `CCCCCCCCCCCCCCCCCCOP(=O)([O-])OC1CC[N+](C)(C)CC1` [Perifosine] + CC(C)(C)c1cnc(CSc2cnc(NC(=O)C3CCNCC3)s2)o1 [SNS-032] (first compound 0.4 µM, partner dose 0.01 µM), `O=C(/C=C/c1cccnc1)NCCCCC1CCN(C(=O)c2ccccc2)CC1` + Cc1ccc(NC(=O)c2cccc(N(C)C)c2)cc1NC(=O)c1ccc(O)cc1 [ZM336372] (first compound 0.01 µM, partner dose 2 µM) is higher in “cleaved PARP positive nuclei fraction” value: 70.6% for the first, 104% for the second.

Compared with `O=C(Nc1cc(C(F)(F)F)cc(C(F)(F)F)c1)c1cc(Cl)ccc1O` + NCC(=O)Nc1ccc(-n2nc(C(F)(F)F)cc2-c2ccc3c(ccc4ccccc43)c2)cc1 [OSU03012] (first compound 0.016 µM, partner dose 1 µM), `Cc1cn(-c2cc(NC(=O)c3ccc(C)c(Nc4nccc(-c5cccnc5)n4)c3)cc(C(F)(F)F)c2)cn1` [nilotinib] + NC(=O)Nc1cc(-c2cccc(F)c2)sc1C(=O)N[C@H]1CCCNC1 [AZD7762] (first compound 0.2 µM, partner dose 0.02 µM) is higher in “cleaved PARP positive nuclei fraction” value: 91.7% for the first, 147% for the second.

Compared with `CCCCCCCCCCCCCCCCCCOP(=O)([O-])OC1CC[N+](C)(C)CC1` [Perifosine] + O=C(O)c1ccc(-c2c[nH]c3ncc(-c4ccccc4)cc23)cc1C1CCCC1 [GSK650394] (first compound 0.4 µM, partner dose 0.16 µM), `O=C(/C=C/c1cccnc1)NCCCCC1CCN(C(=O)c2ccccc2)CC1` + CC(C)(C)c1cnc(CSc2cnc(NC(=O)C3CCNCC3)s2)o1 [SNS-032] (first compound 0.01 µM, partner dose 0.01 µM) is lower in “cleaved PARP positive nuclei fraction” value: 82.6% for the first, 22.4% for the second.

First: O=C(Nc1cc(C(F)(F)F)cc(C(F)(F)F)c1)c1cc(Cl)ccc1O + C[C@@H]1CCN(C(=O)CC#N)C[C@@H]1N(C)c1ncnc2[nH]ccc12 [CP690550] (first compound 0.016 µM, partner dose 1 µM)
Second: Cc1cn(-c2cc(NC(=O)c3ccc(C)c(Nc4nccc(-c5cccnc5)n4)c3)cc(C(F)(F)F)c2)cn1 [nilotinib] + O=C(O)c1ccc(-c2c[nH]c3ncc(-c4ccccc4)cc23)cc1C1CCCC1 [GSK650394] (first compound 0.2 µM, partner dose 0.16 µM)
The “cleaved PARP positive nuclei fraction” value of the first is lower: 57.5% for the first, 144% for the second.

First: CC[C@]1(O)C[C@H]2CN(CCc3c([nH]c4ccccc34)[C@@](C(=O)OC)(c3cc4c(cc3OC)N(C=O)[C@H]3[C@@](O)(C(=O)OC)[C@H](OC(C)=O)[C@]5(CC)C=CCN6CC[C@]43[C@@H]65)C2)C1 [vincristine] + CO[C@@H]1[C@H](N(C)C(=O)c2ccccc2)C[C@H]2O[C@]1(C)n1c3ccccc3c3c4c(c5c6ccccc6n2c5c31)C(=O)NC4 [Midostaurin] (first compound 0.0001 µM, partner dose 0.08 µM)
Second: Cc1cc(Nc2cc(N3CCN(C)CC3)nc(Sc3ccc(NC(=O)C4CC4)cc3)n2)n[nH]1 [Tozasertib] + Cn1cncc1[C@@](N)(c1ccc(Cl)cc1)c1ccc2c(c1)c(-c1cccc(Cl)c1)cc(=O)n2C [tipifarnib] (first compound 0.006 µM, partner dose 0.01 µM)
The “cleaved PARP positive nuclei fraction” value of the first is higher: 212% for the first, 58.6% for the second.

Going from `COc1cc([C@@H]2c3cc4c(cc3[C@@H](O[C@@H]3O[C@@H]5CO[C@@H](C)O[C@H]5[C@H](O)[C@H]3O)[C@H]3COC(=O)[C@H]23)OCO4)cc(OC)c1O` [etoposide] + OCCn1cc(-c2cnc3nnn(Cc4ccc5ncccc5c4)c3n2)cn1 [PF04217903] (first compound 0.02 µM, partner dose 1 µM) to `CC[C@]1(O)C[C@H]2CN(CCc3c([nH]c4ccccc34)[C@@](C(=O)OC)(c3cc4c(cc3OC)N(C=O)[C@H]3[C@@](O)(C(=O)OC)[C@H](OC(C)=O)[C@]5(CC)C=CCN6CC[C@]43[C@@H]65)C2)C1` [vincristine] + O=C(Nc1cccc(Cl)c1)Nc1ncc(CCNc2ncnc3ccsc23)s1 [SNS314] (first compound 0.0001 µM, partner dose 0.0008 µM), the “cleaved PARP positive nuclei fraction” value falls from 227% to 166%.

Going from `CCCCCCCCCCCCCCCCCCOP(=O)([O-])OC1CC[N+](C)(C)CC1` [Perifosine] + C[C@@H]1CCN(C(=O)CC#N)C[C@@H]1N(C)c1ncnc2[nH]ccc12 [CP690550] (first compound 0.4 µM, partner dose 1 µM) to `N#CC[C@H](C1CCCC1)n1cc(-c2ncnc3[nH]ccc23)cn1` [ruxolitinib] + COc1cc(Nc2ncc(F)c(Nc3ccc4c(n3)NC(=O)C(C)(C)O4)n2)cc(OC)c1OC [Tamatinib] (first compound 1 µM, partner dose 0.4 µM), the “cleaved PARP positive nuclei fraction” value rises from 199% to 281%.

Compared with `COc1cc([C@@H]2c3cc4c(cc3[C@@H](O[C@@H]3O[C@@H]5CO[C@@H](C)O[C@H]5[C@H](O)[C@H]3O)[C@H]3COC(=O)[C@H]23)OCO4)cc(OC)c1O` [etoposide] + CN(NC(=O)CC(=O)NN(C)C(=S)c1ccccc1)C(=S)c1ccccc1 [STA4783] (first compound 0.02 µM, partner dose 0.006 µM), `Cc1ccc(Nc2nccc(N(C)c3ccc4c(C)n(C)nc4c3)n2)cc1S(N)(=O)=O` [Pazopanib] + Cn1cncc1[C@@](N)(c1ccc(Cl)cc1)c1ccc2c(c1)c(-c1cccc(Cl)c1)cc(=O)n2C [tipifarnib] (first compound 0.4 µM, partner dose 0.01 µM) is lower in “cleaved PARP positive nuclei fraction” value: 175% for the first, 79.6% for the second.

First: O=C(Nc1cc(C(F)(F)F)cc(C(F)(F)F)c1)c1cc(Cl)ccc1O + O=C(Nc1cccc(Cl)c1)Nc1ncc(CCNc2ncnc3ccsc23)s1 [SNS314] (first compound 0.016 µM, partner dose 0.0008 µM)
Second: Cc1cn(-c2cc(NC(=O)c3ccc(C)c(Nc4nccc(-c5cccnc5)n4)c3)cc(C(F)(F)F)c2)cn1 [nilotinib] + O=C(CCCCCCC(=O)Nc1ccccc1)NO [vorinostat] (first compound 0.2 µM, partner dose 0.08 µM)
The “cleaved PARP positive nuclei fraction” value of the first is lower: 58.1% for the first, 197% for the second.

Going from `N#CC[C@H](C1CCCC1)n1cc(-c2ncnc3[nH]ccc23)cn1` [ruxolitinib] + O=C(O)c1ccc(-c2c[nH]c3ncc(-c4ccccc4)cc23)cc1C1CCCC1 [GSK650394] (first compound 1 µM, partner dose 0.16 µM) to `Cc1cn(-c2cc(NC(=O)c3ccc(C)c(Nc4nccc(-c5cccnc5)n4)c3)cc(C(F)(F)F)c2)cn1` [nilotinib] + CC(C)(C)c1cnc(CSc2cnc(NC(=O)C3CCNCC3)s2)o1 [SNS-032] (first compound 0.2 µM, partner dose 0.01 µM), the “cleaved PARP positive nuclei fraction” value rises from 102% to 118%.

Compared with `O=C(Nc1cc(C(F)(F)F)cc(C(F)(F)F)c1)c1cc(Cl)ccc1O` + CO[C@@H]1[C@H](N(C)C(=O)c2ccccc2)C[C@H]2O[C@]1(C)n1c3ccccc3c3c4c(c5c6ccccc6n2c5c31)C(=O)NC4 [Midostaurin] (first compound 0.016 µM, partner dose 0.08 µM), `COc1cc([C@@H]2c3cc4c(cc3[C@@H](O[C@@H]3O[C@@H]5CO[C@@H](C)O[C@H]5[C@H](O)[C@H]3O)[C@H]3COC(=O)[C@H]23)OCO4)cc(OC)c1O` [etoposide] + NC(=O)Nc1cc(-c2cccc(F)c2)sc1C(=O)N[C@H]1CCCNC1 [AZD7762] (first compound 0.02 µM, partner dose 0.02 µM) is lower in “cleaved PARP positive nuclei fraction” value: 94.1% for the first, 37.4% for the second.

In the case of `N#CC[C@H](C1CCCC1)n1cc(-c2ncnc3[nH]ccc23)cn1` [ruxolitinib] + Cc1ccc(NC(=O)c2cccc(N(C)C)c2)cc1NC(=O)c1ccc(O)cc1 [ZM336372] (first compound 1 µM, partner dose 2 µM), the “cleaved PARP positive nuclei fraction” value is reported as 133%.
`N#CC[C@H](C1CCCC1)n1cc(-c2ncnc3[nH]ccc23)cn1` [ruxolitinib] + CC1(C)NC(=O)N(c2ccc([N+](=O)[O-])c(C(F)(F)F)c2)C1=O [nilutamide] (first compound 1 µM, partner dose 1 µM) was tested, and the “cleaved PARP positive nuclei fraction” value was 76.4%.
